Numbering of substitutions follows the chain as printed. These are yes or no findings as the source states them, for the method shown. Some results given as binding are weak or reduced against the parent protein; the word gives no strength. Tags and fused reporters may be left off the sequences shown.
B1: 2h572-635-CT Long Fc (Fc fusion)
chain: EVQLLESGGGLVQPGGSLRLSCAASGFTFNWELMGWARQAPGKGLEWVSGIEGPGDVTYYADSVKGRFTISRDNSKNTLYLQMNSLRAEDTAVYYCVKVGKDSKSDYRGQGTLVTVSS
notes: not shown: linker and CT Long Fc (CT-L2)
B2: 2h572-608-CT Long Fc (Fc fusion)
chain: B1 chain with D102E, K104N
notes: as for B1
B3: 2h572-6-CT Long Fc (Fc fusion)
chain: B1 chain with E32Q, A37V, D102E, K104N
notes: as for B1
B4: 2h572-634-CT Long Fc (Fc fusion)
chain: B1 chain with K104R
notes: as for B1
B5: 2h572-633-CT Long Fc (Fc fusion)
chain: B1 chain with S103A
notes: as for B1
B6: 2h572-614-CT Long Fc (Fc fusion)
chain: B1 chain with E32Q, A37V, S103A
notes: as for B1
B7: 2h572-619-Ctlong Fc (Fc fusion)
chain: B1 chain with E32Q, A37V, K104R
notes: as for B1

Sequences of proteins named here, by UniProt entry; tags and fusion partners are left off. A change or cut given only in a name is not applied to a line headed by its entry.
UniProt P29965: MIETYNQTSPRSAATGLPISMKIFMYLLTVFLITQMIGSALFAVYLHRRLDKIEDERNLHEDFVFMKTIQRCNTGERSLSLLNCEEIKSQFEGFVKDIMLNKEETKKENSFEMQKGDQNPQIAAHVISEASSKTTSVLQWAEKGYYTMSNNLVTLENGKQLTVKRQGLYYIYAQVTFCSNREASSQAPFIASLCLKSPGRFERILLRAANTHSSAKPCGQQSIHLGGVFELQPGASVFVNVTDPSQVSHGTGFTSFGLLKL

Molecular target: human isoleucine zipper-CD40L (IZ-hCD40L) (human) (UniProt P29965)
Experiment: SPR; captured on anti-human IgG Fc surface, IZ-hCD40L as analyte

Row | binding | Binder
1 | binds | B1
2 | binds | B2
3 | binds | B3
4 | binds | B4
5 | binds | B5
6 | binds | B6
7 | binds | B7

— US20160075790A1 (Bristol-Myers Squibb, published 2016)
